Data as given in the supplement of paper PMC3334620.
In all, about 33,000 sequences were measured (“E-score (-0.5 to 0.5)”: median about -0.0034, highest 2% from about 0.25 on). The list shows a part of the results.

These sequences were tested against T1, Yap3 (UniProt P38749) (assay: PBM E-score (8-mer binding enrichment) (E-score (-0.5 to 0.5)); higher = stronger / more preferred TF binding). Settings: protein concentration: 100 nM; construct: GST-full length.
T1 sequence: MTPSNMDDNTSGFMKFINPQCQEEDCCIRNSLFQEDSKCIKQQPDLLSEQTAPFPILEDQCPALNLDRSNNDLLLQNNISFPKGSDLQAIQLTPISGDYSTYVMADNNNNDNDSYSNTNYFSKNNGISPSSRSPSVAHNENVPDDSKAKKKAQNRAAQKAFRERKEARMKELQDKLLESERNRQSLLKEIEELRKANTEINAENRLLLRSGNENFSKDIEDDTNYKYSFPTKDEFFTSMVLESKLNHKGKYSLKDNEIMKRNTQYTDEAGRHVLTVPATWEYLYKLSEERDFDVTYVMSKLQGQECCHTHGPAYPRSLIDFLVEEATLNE
Protocol: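 Universal 'all 10-mer' protein binding microarrays (Agilent AMADID 015681) probed with GST-tagged S. cerevisiae TFs (full-length or DBD) made by in vitro transcription/translation (PURExpress), about 100-200 nM. Bound TF was detected with fluorescent anti-GST. Each ungapped 8-mer (which stands for itself and its reverse complement) is scored by the PBM enrichment score (E-score), a modified Wilcoxon-Mann-Whitney statistic from -0.5 to +0.5, computed with the Universal PBM Analysis Suite. Scale: above 0.35 generally sequence-specific binding.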

In order of rising “PBM E-score” value:
1. CTGCTGGC  -0.396
2. GGCTCCTA  -0.336
3. ACCCCTGG  -0.299
4. GCAGTGCC  -0.298
5. GAGCCCCA  -0.286
6. ACCTCCCG  -0.279
7. CAAAGCTC  -0.278
8. CGCAGCTA  -0.268
9. CCTAAGCC  -0.262
10. CAGGGGAC  -0.249
11. ATAGCTCG  -0.243
12. ACCGTCCG  -0.237
13. CAGCAAGC  -0.237
14. GACCGTCC  -0.231
15. GGCGTCTA  -0.227
16. ACGCTGCC  -0.225
17. GCATCTGA  -0.225
18. CCCGAACC  -0.213
19. CTGCCAGA  -0.201
20. GAGTGGGA  -0.199
21. CCGGTGCG  -0.192
22. CCACGCGG  -0.19
23. GGTCCTGA  -0.187
24. ATTCGACC  -0.185
25. ACCACCGG  -0.18
26. CCTGGTAG  -0.175
27. CAGCCCGC  -0.171
28. AAGGCCAA  -0.17
29. GACTAGAC  -0.164
30. CAGTGGTC  -0.163
31. CACTGGGC  -0.162
32. CAGTCACG  -0.157
33. GCGCTGAA  -0.154
34. GGACTACC  -0.151
35. GCTCACCC  -0.146
36. AGTTGGGA  -0.145
37. GAGCGACC  -0.142
38. GCCTATGA  -0.134
39. CCATACTC  -0.133
40. CGCAGCCA  -0.129
41. CCTGCTAG  -0.128
42. CGGGTCAG  -0.128
43. ACAGCAGG  -0.126
44. CAGCGAGG  -0.125
45. GGTAAACC  -0.119
46. CACACGCA  -0.112
47. CTGATGAA  -0.112
48. ACTCCACT  -0.111
49. AAGAATCC  -0.111
50. CCCAAGAA  -0.109
51. CCCATTAA  -0.108
52. AACGTCGC  -0.106
53. ACTCTGCC  -0.104
54. ACCATCTA  -0.0999
55. TATCTTGA  -0.0978
56. AGATTCCT  -0.0936
57. ATGTCTCG  -0.0888
58. ACGCACTG  -0.0882
59. AGCGGCAA  -0.0859
60. CCATACAG  -0.0851
61. AGTCTCTC  -0.0846
62. CACACCGG  -0.0838
63. GCCTATAC  -0.0816
64. CACCACTC  -0.0806
65. CTCTCTGC  -0.0791
66. ATGCGGTC  -0.0772
67. GAAGCGCC  -0.0767
68. AAGCCCAT  -0.0713
69. GCCGTTCC  -0.0665
70. ATTGGCAG  -0.0651
71. AACACGCC  -0.0623
72. CGTATCCA  -0.0607
73. AACGTAGG  -0.06
74. AGGCATTC  -0.0597
75. CAAGATCG  -0.0589
76. CTGTGGAA  -0.0586
77. GAGTGAGA  -0.0542
78. GACACTCA  -0.0515
79. GAAGCATA  -0.0472
80. ATGACCTG  -0.0439
81. CTTGAACA  -0.0355
82. AAGGATGC  -0.0349
83. CTACTGAG  -0.0327
84. ACGCACCG  -0.0321
85. AATCCCTC  -0.0305
86. TATCGTGA  -0.0296
87. AACCTGTC  -0.0277
88. CTCCTAAC  -0.0276
89. CACTCCCG  -0.0225
90. GAAATGTC  -0.0215
91. AGGTGTAC  -0.0191
92. GTCACGCA  -0.0179
93. ATGACGGA  -0.0133
94. CTGTAAGC  -0.0121
95. GGTGCATA  -0.012
96. AATGCGAA  -0.012
97. CTACCAGA  -0.0115
98. CCATGCGA  -0.0102
99. ACTCACTC  -0.00993
100. CGCGTTCC  -0.00554
101. CGTTGCGA  -0.00355
102. ATAACCGA  -0.00325
103. CCATAGAC  0.00214
104. GTCTCGAA  0.00257
105. ACGCCCAC  0.00322
106. CTAAGAAG  0.00476
107. CAGCAAAG  0.00686
108. TCCAAAGA  0.00752
109. CAAACCAG  0.00756
110. CGCGAAAG  0.00871
111. TCACAAGA  0.0103
112. GCTGACTA  0.0115
113. ACAGCTTG  0.0129
114. GCCAGGAA  0.0131
115. TTGAGAAA  0.0166
116. AATTGAAC  0.0173
117. AGTACACC  0.0217
118. CCCGCCCC  0.022
119. ATAGCCAT  0.0223
120. GGATAAGA  0.0239
121. GCTAATCC  0.0261
122. ATCACTAA  0.0281
123. AAGATGTG  0.0314
124. CAAGGTGA  0.0315
125. CGATGGCG  0.0348
126. CCATTTGC  0.0381
127. AAGTTGAA  0.0412
128. CGAGCTTC  0.0418
129. CCTTATAC  0.0445
130. GGTAACAC  0.0453
131. CCTATTGA  0.0457
132. TATCTGCA  0.0463
133. CCACTCTA  0.0474
134. TAAGGCGA  0.0481
135. AGAACCTA  0.0493
136. CTGATCGC  0.0503
137. AAGCCGGA  0.0522
138. CCAAACAG  0.0533
139. AAACACCT  0.0568
140. AAGAAAAA  0.059
141. CCTCAATA  0.0618
142. AAATTCTT  0.0652
143. GAGCGCTA  0.0655
144. GCGGACCA  0.0668
145. GATGGATA  0.0671
146. GAGTAGAC  0.0672
147. ATGCGTAC  0.0677
148. CAAGTAAG  0.0683
149. AAGATTGA  0.0687
150. AGCATTAG  0.0718
151. GACGCAAA  0.0726
152. ACTATAGA  0.0739
153. GGTCACGA  0.0748
154. AATGAGTG  0.0774
155. ACTATGCA  0.0787
156. ACCCACGT  0.0788
157. GCCATAAA  0.0788
158. AATCCAAT  0.0791
159. CTGTTTAC  0.0799
160. TAGCTTAA  0.0898
161. CAAACACG  0.092
162. GAAACCAC  0.0924
163. CAAGAGCC  0.0964
164. GTTATCCA  0.0968
165. GCTATTTA  0.0985
166. AGTGACAT  0.1
167. CTTCACCC  0.104
168. AGACCTAT  0.104
169. CTTTCACC  0.105
170. ACGTGCAA  0.107
171. GTTTGCGA  0.113
172. ATAACTCG  0.114
173. CGCCGAAC  0.118
174. GATGAGAC  0.118
175. TGGAACCA  0.12
176. AGTTCAAG  0.121
177. CGGCAGAA  0.124
178. TTAGACAA  0.128
179. GGTTGTGA  0.13
180. AACAGAGT  0.131
181. CGGACAAG  0.135
182. ACATCTCG  0.136
183. CATTTGCA  0.136
184. TGCGCTAA  0.14
185. AACACGTA  0.142
186. AATTTTCA  0.143
187. CCAGTTAA  0.143
188. TACAAGGA  0.144
189. ATTACTGA  0.154
190. CAAACCCA  0.155
191. AGTAAATC  0.159
192. AGTTCCAT  0.16
193. AATCCGGT  0.162
194. GTTATAAC  0.162
195. AAACAATA  0.163
196. ACCGAGAA  0.166
197. AATCATCA  0.168
198. ATATGTCA  0.17
199. ACGACACA  0.17
200. AACATCAT  0.174
201. ATATACCG  0.177
202. GTTACGAA  0.181
203. TAATGCGA  0.189
204. AAACGATT  0.198
205. ACCTTACT  0.21
206. GAGTACCA  0.223
207. AAAAGACA  0.227
208. CATGGAAA  0.236
209. GAATAGTA  0.24
210. AGCGCGCA  0.24
211. TGTAATAA  0.242
212. AATTCATA  0.242
213. AAATATTT  0.249
214. ACGAACCA  0.266
215. AAACGGTA  0.301
216. GTACGTAA  0.312
217. TAATATAA  0.344
218. ATGTAATA  0.371
219. CTTACTAA  0.443
